# The list is a part of this screen's results and no random one: it is rich in T/C values a quarter to a half above the control, in often repeated tests (any T/C) and in doses without a T/C. Further doses and runs are listed elsewhere. T/C is the treated group as % of the vehicle group. Some doses have a count of surviving animals in place of a T/C: the source holds a T/C of zero for them, seemingly a mark for toxic or unscored doses. Some doses without a T/C left all or most animals alive at the check, yet need not have been tolerated: the source hardly ever lists a survival T/C far under the control, and the zero likely stands for such cases as well. Survivors were counted at the toxicity check, usually on the fifth day, unless a day is given; later deaths do not show. Schedules are NCI's codes, read here as Q, the interval in days (D) or hours (H), X, the number of doses. Some entries were tested several times; the values are given in rising order. Some schedule codes hold Z or #, which are not explained here. Where survival is the endpoint, this PubChem deposit counts one and a half times the control or more as active, and values a quarter to a half above the control carry no call in these data; other NCI protocols may use other cut-offs. Some T/C values are followed by the survivors on the day toxicity was checked, most often the fifth; where none is given, no animal had died by that day.
# System: L1210 leukemia ip in BDF1 mice, survival T/C
# Assay: NCI In Vivo Anticancer Drug Screen. Data for tumor model L1210 Leukemia (intraperitoneal) in B6D2F1 (BDF1) mice
# Details: higher T/C = longer survival
# [1] = T/C endpoint: mean survival time, dose: 500.0 mg/kg/injection, schedule: Q01DX001 (ip), vehicle: saline
compound,measurement,setting,value
O=P1(N(CCCl)CCCl)NCCCO1 (centres undefined),T/C,"T/C endpoint: mean survival time, dose: 400.0 mg/kg/injection, schedule: Q01DX001 (ip), vehicle: saline, evaluated on day 63",357 % of control
same,T/C,"T/C endpoint: mean survival time, dose: 400.0 mg/kg/injection, schedule: Q01DX001 (ip), vehicle: saline, evaluated on day 64",108 % of control [6 of 8 alive]
same,survivor count,"T/C endpoint: mean survival time, dose: 400.0 mg/kg/injection, schedule: Q01DX001 (ip), vehicle: saline",6 of 10 and 8 of 8
same,survivor count,"T/C endpoint: mean survival time, dose: 400.0 mg/kg/injection, schedule: Q01DX006 (iv), vehicle: saline",5 of 6
same,survivor count,"T/C endpoint: mean survival time, dose: 400.0 mg/kg/injection, schedule: Q01DX Z (im), vehicle: saline",3 of 6
same,survivor count,"T/C endpoint: mean survival time, dose: 400.0 mg/kg/injection, schedule: Q01DX Z (ip), vehicle: saline",0 of 6
same,survivor count,"T/C endpoint: mean survival time, dose: 400.0 mg/kg/injection, schedule: Q01DX Z (oral), vehicle: saline",4 of 6
same,survivor count,"T/C endpoint: mean survival time, dose: 400.0 mg/kg/injection, schedule: Q01DX Z (sc), vehicle: saline",1 of 6
same,T/C,[1],138 and 193 % of control [4 of 6 alive]
same,survivor count,[1],2 of 6 and 5 of 6
same,survivor count,"T/C endpoint: mean survival time, dose: 500.0 mg/kg/injection, schedule: Q01DX001 (ip), vehicle: water",1 of 3
same,survivor count,"T/C endpoint: mean survival time, dose: 500.0 mg/kg/injection, schedule: Q01DX001 (sc), vehicle: saline",5 of 8
same,survivor count,"T/C endpoint: mean survival time, dose: 500.0 mg/kg/injection, schedule: Q## X Z (sc), vehicle: saline",1 of 8
same,survivor count,"T/C endpoint: mean survival time, dose: 563.0 mg/kg/injection, schedule: Q07DX002 (ip), vehicle: saline",0 of 10
same,survivor count,"T/C endpoint: mean survival time, dose: 600.0 mg/kg/injection, schedule: Q01DX006 (iv), vehicle: saline",1 of 6
same,survivor count,"T/C endpoint: mean survival time, dose: 600.0 mg/kg/injection, schedule: Q01DX Z (im), vehicle: saline",0 of 6
same,survivor count,"T/C endpoint: mean survival time, dose: 600.0 mg/kg/injection, schedule: Q01DX Z (ip), vehicle: saline",0 of 6
same,survivor count,"T/C endpoint: mean survival time, dose: 600.0 mg/kg/injection, schedule: Q01DX Z (sc), vehicle: saline",0 of 6
same,survivor count,"T/C endpoint: mean survival time, dose: 600.0 mg/kg/injection, schedule: Q03DX Z (ip), vehicle: saline",4 of 6
same,survivor count,"T/C endpoint: mean survival time, dose: 800.0 mg/kg/injection, schedule: Q01DX001 (ip), vehicle: saline","0 of 6, 1 of 6, 2 of 6"
same,survivor count,"T/C endpoint: mean survival time, dose: 800.0 mg/kg/injection, schedule: Q01DX Z (ip), vehicle: saline",0 of 6
same,survivor count,"T/C endpoint: mean survival time, dose: 850.0 mg/kg/injection, schedule: Q07DX Z (ip), vehicle: saline",0 of 6
same,survivor count,"T/C endpoint: mean survival time, dose: 900.0 mg/kg/injection, schedule: Q01DX001 (ip), vehicle: saline",0 of 6
same,survivor count,"T/C endpoint: mean survival time, dose: 1000.0 mg/kg/injection, schedule: Q01DX001 (ip), vehicle: saline",2 of 6
same,survivor count,"T/C endpoint: mean survival time, dose: 1000.0 mg/kg/injection, schedule: Q07DX Z (ip), vehicle: saline",0 of 6
same,T/C,"T/C endpoint: median survival time, dose: 20.0 mg/kg/injection, schedule: Q01DX009 (ip), vehicle: saline, evaluated on day 25",130 % of control
same,T/C,"T/C endpoint: median survival time, dose: 20.0 mg/kg/injection, schedule: Q01DX009 (ip), vehicle: saline, evaluated on day 30",137 % of control
same,T/C,"T/C endpoint: median survival time, dose: 22.5 mg/kg/injection, schedule: Q01DX009 (ip), vehicle: saline",133 % of control [5 of 6 alive]
same,T/C,"T/C endpoint: median survival time, dose: 37.5 mg/kg/injection, schedule: Q07DX003 (ip), vehicle: saline, evaluated on day 7",137 % of control
same,T/C,"T/C endpoint: median survival time, dose: 37.5 mg/kg/injection, schedule: Q07DX003 (ip), vehicle: saline, evaluated on day 63",135 % of control
same,T/C,"T/C endpoint: median survival time, dose: 40.0 mg/kg/injection, schedule: Q01DX005 (ip), vehicle: saline",149 % of control
same,T/C,"T/C endpoint: median survival time, dose: 40.0 mg/kg/injection, schedule: Q01DX009 (ip), vehicle: saline, evaluated on day 25",150 % of control
same,T/C,"T/C endpoint: median survival time, dose: 40.0 mg/kg/injection, schedule: Q01DX009 (ip), vehicle: saline, evaluated on day 30","139, 149, 178 % of control"
same,T/C,"T/C endpoint: median survival time, dose: 50.0 mg/kg/injection, schedule: Q01DX001 (ip), vehicle: saline, evaluated on day 7","115, 116, 117, 119, 127, 146 % of control"
same,T/C,"T/C endpoint: median survival time, dose: 50.0 mg/kg/injection, schedule: Q01DX001 (ip), vehicle: saline, evaluated on day 26",115 % of control
same,T/C,"T/C endpoint: median survival time, dose: 50.0 mg/kg/injection, schedule: Q01DX001 (ip), vehicle: saline, evaluated on day 30",127 % of control
same,T/C,"T/C endpoint: median survival time, dose: 50.0 mg/kg/injection, schedule: Q01DX001 (ip), vehicle: saline, evaluated on day 35",119 % of control
same,T/C,"T/C endpoint: median survival time, dose: 50.0 mg/kg/injection, schedule: Q01DX001 (ip), vehicle: saline, evaluated on day 62",146 % of control
same,T/C,"T/C endpoint: median survival time, dose: 50.0 mg/kg/injection, schedule: Q01DX001 (ip), vehicle: saline, evaluated on day 63",116 [7 of 8 alive] and 117 % of control
same,T/C,"T/C endpoint: median survival time, dose: 50.0 mg/kg/injection, schedule: Q01DX001 (ip), vehicle: saline, evaluated on day 64",122 % of control
same,T/C,"T/C endpoint: median survival time, dose: 65.0 mg/kg/injection, schedule: Q01DX001 (ip), vehicle: saline, evaluated on day 7","124, 137, 138 % of control"
same,T/C,"T/C endpoint: median survival time, dose: 65.0 mg/kg/injection, schedule: Q01DX001 (ip), vehicle: saline, evaluated on day 46",136 % of control
same,T/C,"T/C endpoint: median survival time, dose: 65.0 mg/kg/injection, schedule: Q01DX001 (ip), vehicle: saline, evaluated on day 69",144 % of control
same,T/C,"T/C endpoint: median survival time, dose: 65.0 mg/kg/injection, schedule: Q07DX003 (ip), vehicle: saline, evaluated on day 7","130, 133, 134 % of control"

# Reference: PubChem BioAssay AID248 (DTP/NCI, 2004)
